# Test results published in the supplement of paper PMC12823440, “Inhibitors supercharge kinase turnover through native proteolytic circuits” (Nature, 2025).
# Amino acid sequences for entries named in this document (tags omitted). A change or cut given only in a name is not applied to a line headed by its entry.
# UniProt P10398: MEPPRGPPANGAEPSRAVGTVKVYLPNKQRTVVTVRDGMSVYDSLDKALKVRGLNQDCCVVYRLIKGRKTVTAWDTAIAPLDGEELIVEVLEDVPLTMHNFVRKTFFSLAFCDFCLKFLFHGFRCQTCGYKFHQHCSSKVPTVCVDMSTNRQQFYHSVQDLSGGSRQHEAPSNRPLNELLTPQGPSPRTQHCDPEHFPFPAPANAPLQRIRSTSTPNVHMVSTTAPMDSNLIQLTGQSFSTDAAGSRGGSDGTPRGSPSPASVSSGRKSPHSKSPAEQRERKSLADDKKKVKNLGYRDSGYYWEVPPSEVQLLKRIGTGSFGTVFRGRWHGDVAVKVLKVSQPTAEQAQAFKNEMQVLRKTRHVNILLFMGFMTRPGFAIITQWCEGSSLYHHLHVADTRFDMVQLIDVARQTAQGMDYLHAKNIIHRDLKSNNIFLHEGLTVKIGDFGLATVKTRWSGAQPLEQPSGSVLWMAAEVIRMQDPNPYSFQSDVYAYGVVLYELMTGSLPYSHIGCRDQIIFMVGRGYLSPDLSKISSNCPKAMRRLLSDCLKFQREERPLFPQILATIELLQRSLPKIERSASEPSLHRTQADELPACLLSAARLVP
# UniProt O14965: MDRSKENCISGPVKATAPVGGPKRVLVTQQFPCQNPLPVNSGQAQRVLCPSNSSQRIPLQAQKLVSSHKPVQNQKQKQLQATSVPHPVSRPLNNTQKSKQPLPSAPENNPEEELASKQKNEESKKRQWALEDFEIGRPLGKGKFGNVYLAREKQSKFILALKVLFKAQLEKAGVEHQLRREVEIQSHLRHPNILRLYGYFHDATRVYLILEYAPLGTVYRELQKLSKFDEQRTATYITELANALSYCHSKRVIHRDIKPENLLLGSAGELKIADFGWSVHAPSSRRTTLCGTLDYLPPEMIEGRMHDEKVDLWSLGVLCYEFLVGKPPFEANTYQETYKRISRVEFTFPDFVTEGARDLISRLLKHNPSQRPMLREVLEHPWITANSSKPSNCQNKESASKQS
# UniProt Q96GD4, whole entry: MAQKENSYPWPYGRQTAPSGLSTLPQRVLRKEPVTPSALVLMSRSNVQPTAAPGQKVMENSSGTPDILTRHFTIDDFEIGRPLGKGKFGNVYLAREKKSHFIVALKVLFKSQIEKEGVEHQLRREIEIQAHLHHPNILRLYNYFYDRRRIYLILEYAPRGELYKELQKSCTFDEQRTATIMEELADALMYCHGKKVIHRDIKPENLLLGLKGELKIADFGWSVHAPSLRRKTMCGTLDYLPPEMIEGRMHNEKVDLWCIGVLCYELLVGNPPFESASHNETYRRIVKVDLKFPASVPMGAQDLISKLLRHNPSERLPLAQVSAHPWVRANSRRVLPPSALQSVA
# UniProt Q9UQB9: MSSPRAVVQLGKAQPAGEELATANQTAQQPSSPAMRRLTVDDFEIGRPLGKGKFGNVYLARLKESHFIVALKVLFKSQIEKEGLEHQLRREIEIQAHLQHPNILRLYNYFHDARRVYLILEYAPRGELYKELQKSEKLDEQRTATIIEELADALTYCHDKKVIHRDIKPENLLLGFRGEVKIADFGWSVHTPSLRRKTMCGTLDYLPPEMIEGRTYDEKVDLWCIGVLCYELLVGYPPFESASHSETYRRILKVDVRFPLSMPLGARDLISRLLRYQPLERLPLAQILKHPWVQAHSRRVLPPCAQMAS
# UniProt P51451: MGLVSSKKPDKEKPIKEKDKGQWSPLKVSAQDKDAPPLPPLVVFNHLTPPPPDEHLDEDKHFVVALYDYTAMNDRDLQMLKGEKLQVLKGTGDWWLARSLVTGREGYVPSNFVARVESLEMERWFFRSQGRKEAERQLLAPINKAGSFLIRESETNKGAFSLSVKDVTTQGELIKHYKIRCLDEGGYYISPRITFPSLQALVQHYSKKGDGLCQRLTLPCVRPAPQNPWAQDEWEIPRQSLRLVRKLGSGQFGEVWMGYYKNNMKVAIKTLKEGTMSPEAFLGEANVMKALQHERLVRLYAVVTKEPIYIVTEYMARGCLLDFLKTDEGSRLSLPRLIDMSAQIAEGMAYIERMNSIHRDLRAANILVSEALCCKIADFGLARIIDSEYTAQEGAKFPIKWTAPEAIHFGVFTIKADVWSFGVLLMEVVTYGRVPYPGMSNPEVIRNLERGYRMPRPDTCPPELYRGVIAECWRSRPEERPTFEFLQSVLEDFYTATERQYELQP
# UniProt P51813: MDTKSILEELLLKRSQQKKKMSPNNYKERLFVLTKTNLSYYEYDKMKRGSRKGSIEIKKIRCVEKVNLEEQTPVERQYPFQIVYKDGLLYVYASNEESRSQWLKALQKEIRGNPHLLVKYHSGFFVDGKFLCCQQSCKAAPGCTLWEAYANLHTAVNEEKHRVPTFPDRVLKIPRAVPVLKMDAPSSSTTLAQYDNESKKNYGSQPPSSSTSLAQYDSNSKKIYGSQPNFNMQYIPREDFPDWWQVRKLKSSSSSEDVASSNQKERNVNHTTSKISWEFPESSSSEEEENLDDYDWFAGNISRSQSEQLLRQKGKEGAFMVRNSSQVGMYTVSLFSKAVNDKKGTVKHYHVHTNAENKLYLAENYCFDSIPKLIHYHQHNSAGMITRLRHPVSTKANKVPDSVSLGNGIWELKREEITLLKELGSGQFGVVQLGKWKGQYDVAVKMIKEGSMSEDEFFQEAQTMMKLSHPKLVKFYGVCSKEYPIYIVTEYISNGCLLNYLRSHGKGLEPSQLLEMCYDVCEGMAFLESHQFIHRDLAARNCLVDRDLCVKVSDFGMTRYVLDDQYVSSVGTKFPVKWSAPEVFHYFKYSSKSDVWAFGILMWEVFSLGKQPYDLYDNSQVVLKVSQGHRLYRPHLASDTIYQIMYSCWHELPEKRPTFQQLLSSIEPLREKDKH
# UniProt P15056, whole entry, looked up: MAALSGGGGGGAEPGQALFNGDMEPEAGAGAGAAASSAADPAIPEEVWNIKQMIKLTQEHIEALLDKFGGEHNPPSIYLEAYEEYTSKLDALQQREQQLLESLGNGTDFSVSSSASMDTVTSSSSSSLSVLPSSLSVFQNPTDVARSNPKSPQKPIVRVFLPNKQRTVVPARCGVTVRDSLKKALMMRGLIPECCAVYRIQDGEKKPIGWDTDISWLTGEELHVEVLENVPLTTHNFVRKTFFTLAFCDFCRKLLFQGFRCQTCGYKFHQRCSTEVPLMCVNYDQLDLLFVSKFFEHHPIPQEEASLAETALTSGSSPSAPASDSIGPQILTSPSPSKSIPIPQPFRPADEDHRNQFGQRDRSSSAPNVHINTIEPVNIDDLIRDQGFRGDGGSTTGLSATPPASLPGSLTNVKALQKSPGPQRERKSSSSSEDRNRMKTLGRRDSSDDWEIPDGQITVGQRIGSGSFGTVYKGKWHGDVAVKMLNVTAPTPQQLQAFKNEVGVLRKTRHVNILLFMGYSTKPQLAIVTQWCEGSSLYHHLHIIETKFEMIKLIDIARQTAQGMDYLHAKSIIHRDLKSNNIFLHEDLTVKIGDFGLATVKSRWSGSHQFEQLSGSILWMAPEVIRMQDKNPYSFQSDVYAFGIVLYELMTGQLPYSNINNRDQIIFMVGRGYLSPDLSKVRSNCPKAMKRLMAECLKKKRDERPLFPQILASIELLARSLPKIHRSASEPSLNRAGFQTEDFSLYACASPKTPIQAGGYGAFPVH
# UniProt Q9UQM7, whole entry: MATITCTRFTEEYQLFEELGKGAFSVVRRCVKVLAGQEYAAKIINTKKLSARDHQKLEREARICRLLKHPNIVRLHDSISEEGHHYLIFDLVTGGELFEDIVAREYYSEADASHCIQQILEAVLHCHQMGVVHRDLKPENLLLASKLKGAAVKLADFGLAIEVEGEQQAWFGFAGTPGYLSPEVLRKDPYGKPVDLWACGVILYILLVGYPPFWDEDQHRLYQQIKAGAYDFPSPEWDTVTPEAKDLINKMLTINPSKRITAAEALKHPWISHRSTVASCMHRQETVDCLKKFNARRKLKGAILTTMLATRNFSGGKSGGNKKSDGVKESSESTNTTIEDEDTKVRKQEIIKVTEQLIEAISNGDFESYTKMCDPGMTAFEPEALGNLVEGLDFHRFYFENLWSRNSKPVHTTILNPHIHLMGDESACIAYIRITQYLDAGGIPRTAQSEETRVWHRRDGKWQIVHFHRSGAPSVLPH
# UniProt Q13555: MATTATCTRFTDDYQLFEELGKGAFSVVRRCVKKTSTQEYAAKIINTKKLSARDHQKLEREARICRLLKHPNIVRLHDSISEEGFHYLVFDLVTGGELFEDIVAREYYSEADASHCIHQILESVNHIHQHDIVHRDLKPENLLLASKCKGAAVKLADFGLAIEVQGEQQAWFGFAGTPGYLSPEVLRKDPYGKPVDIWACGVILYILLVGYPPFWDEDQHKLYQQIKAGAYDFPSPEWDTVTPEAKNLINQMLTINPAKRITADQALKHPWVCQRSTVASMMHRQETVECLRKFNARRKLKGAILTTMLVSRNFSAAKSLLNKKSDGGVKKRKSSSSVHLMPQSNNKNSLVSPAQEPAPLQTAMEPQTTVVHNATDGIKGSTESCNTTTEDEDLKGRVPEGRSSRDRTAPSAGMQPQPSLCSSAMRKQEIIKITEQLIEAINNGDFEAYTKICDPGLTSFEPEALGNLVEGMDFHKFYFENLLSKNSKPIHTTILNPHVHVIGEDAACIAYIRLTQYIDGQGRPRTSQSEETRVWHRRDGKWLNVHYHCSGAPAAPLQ
# UniProt Q15131: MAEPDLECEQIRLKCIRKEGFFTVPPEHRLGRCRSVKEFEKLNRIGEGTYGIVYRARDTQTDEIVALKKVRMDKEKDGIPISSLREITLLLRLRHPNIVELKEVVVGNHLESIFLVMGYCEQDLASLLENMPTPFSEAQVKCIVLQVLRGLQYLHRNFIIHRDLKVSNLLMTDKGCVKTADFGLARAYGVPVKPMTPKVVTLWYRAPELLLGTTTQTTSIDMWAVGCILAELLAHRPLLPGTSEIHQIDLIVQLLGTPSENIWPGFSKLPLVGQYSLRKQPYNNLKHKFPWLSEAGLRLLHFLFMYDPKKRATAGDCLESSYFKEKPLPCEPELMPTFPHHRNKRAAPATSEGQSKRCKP
# UniProt Q00526: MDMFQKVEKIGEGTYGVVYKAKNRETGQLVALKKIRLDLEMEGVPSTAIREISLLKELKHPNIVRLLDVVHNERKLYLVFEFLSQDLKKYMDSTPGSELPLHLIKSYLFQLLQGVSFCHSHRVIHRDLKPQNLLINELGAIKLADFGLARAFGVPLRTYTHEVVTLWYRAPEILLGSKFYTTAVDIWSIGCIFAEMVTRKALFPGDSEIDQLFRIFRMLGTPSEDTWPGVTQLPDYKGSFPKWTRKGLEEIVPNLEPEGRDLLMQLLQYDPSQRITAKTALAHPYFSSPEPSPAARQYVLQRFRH
# UniProt Q00535, whole entry, looked up: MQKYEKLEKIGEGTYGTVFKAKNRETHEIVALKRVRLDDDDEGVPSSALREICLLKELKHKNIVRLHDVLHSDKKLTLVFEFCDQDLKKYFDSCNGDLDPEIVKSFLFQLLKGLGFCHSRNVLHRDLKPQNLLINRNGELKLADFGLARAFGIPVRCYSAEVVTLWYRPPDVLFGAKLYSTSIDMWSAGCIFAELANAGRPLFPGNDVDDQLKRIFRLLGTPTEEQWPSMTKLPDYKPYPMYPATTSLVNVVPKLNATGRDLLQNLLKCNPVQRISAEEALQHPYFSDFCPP
# UniProt O96017, whole entry: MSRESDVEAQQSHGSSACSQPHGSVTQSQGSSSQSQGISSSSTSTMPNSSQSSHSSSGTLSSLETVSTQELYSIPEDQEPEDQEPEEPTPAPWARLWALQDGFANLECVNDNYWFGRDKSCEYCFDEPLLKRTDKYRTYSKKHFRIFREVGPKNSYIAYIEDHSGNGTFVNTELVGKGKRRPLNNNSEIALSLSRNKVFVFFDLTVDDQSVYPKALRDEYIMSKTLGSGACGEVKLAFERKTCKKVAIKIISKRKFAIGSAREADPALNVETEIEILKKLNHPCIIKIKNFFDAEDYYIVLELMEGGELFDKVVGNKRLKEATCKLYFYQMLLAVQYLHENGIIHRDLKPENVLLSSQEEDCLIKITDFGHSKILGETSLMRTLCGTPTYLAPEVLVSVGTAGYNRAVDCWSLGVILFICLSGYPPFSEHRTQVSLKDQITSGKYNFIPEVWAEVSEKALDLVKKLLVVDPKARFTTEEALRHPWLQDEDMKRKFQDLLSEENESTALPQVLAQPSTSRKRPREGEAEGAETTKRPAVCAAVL
# UniProt P41240: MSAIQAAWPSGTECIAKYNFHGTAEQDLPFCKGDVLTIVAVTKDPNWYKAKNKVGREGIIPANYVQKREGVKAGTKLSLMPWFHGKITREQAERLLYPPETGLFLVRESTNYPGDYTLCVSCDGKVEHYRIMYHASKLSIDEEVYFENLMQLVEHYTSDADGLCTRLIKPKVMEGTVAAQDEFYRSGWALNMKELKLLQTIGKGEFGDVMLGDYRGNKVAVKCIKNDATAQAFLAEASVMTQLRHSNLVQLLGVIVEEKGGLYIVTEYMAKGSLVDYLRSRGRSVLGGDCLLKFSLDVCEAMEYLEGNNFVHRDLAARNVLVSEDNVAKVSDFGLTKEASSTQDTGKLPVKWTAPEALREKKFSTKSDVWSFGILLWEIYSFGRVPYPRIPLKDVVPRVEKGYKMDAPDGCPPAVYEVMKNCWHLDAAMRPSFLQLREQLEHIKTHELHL
# This is one part of the list. The calls rarely recur for the same compound in another form.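 In K562 cells expressing nanoluciferase-fused kinases, luminescence was recorded at 4 h intervals between 2 and 18 h, normalized as percent of control with DMSO at 100% and a positive control at 0%. A significant (2 sigma) signal drop marks a time point as decreased. The authors' rule for a hit is not shown and takes in more than the number of time points.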
# What was measured:
# Test in all cases: number of time points (of 5) at which kinase-Nluc abundance scored as decreased, DMSO-normalised (count); higher = more persistent destabilization
# Conditions in all cases: K562; 2-18 h
# ALK = ALK (UniProt Q9UM73)
# ARAF = ARAF (UniProt P10398)
# AURKA = AURKA (UniProt O14965)
# AURKB = AURKB (UniProt Q96GD4)
# AURKC = AURKC (UniProt Q9UQB9)
# BLK = BLK (UniProt P51451)
# BMX = BMX (UniProt P51813)
# BRAF = BRAF (UniProt P15056)
# BRAF_V600E = tested on: BRAF_V600E
# BTK = BTK (UniProt Q06187)
# CAMK2A = CAMK2A (UniProt Q9UQM7)
# CAMK2G = CAMK2G (UniProt Q13555)
# CDK10 = CDK10 (UniProt Q15131)
# CDK2 = CDK2 (UniProt P24941)
# CDK3 = CDK3 (UniProt Q00526)
# CDK5 = CDK5 (UniProt Q00535)
# CDK6 = CDK6 (UniProt Q00534)
# CHEK2 = CHEK2 (UniProt O96017)
# CSF1R = CSF1R (UniProt P07333)
# CSK = CSK (UniProt P41240)
SMILES,number of time points (ALK),number of time points (ARAF),number of time points (AURKA),number of time points (AURKB),number of time points (AURKC),number of time points (BLK),number of time points (BMX),number of time points (BRAF),number of time points (BRAF_V600E),number of time points (BTK),number of time points (CAMK2A),number of time points (CAMK2G),number of time points (CDK10),number of time points (CDK2),number of time points (CDK3),number of time points (CDK5),number of time points (CDK6),number of time points (CHEK2),number of time points (CSF1R),number of time points (CSK)
Cc1nc(NC(=O)N2CCC[C@H]2C(N)=O)sc1-c1csc(C(C)(C)C)n1 (10 µM),0,0,0,0,0,0,0,0,0,0,0,0,0,0,0,0,0,0,0,0
Nc1nc2c(ncn2COCCO)c(=O)[nH]1 [Acyclovir] (10 µM),0,0,0,0,0,0,0,0,0,0,0,0,0,0,0,0,0,0,0,0
CN(c1ccc(C(F)(F)F)cc1)S(=O)(=O)c1ccc(C(=O)Nc2nc(-c3ccccn3)cs2)cc1 (2.5 µM),0,0,0,0,0,0,1,0,0,0,0,0,0,0,0,0,0,0,0,0
CNC[C@@H](NC(=O)c1ccc(-c2nc([C@H]3CC[C@H](O)[C@@H](F)C3)cnc2N)cc1F)c1cc(F)cc(Br)c1 [Rineterkib] (10 µM),0,0,0,0,0,0,0,0,0,0,0,0,0,0,0,0,0,0,0,0
CC[C@H](C)[C@@H]1NC(=O)[C@@H]2CCCN2C(=O)[C@@H]2CCCN2C(=O)[C@@H]2CCCN2C(=O)[C@H](CC(C)C)NC(=O)CNC(=O)CNC(=O)[C@H](Cc2ccccc2)NC1=O [Heterophyllin B] (10 µM),0,0,0,0,0,0,0,0,0,0,0,0,0,0,0,0,0,0,0,0
O=c1cc(-c2ccc(O)cc2)oc2cc(O)c(O)c(O)c12 [Scutellarein] (10 µM),0,0,0,0,1,0,0,0,0,0,0,0,0,0,0,0,0,0,0,0
Cn1cc(-c2ccc3nnc(Sc4ccc5nn(C)cc5c4)n3n2)cn1 [c-Met inhibitor 1] (10 µM),0,0,0,0,0,0,0,0,0,0,0,0,0,0,0,0,0,0,0,0
C[C@@H]1CN(CC(=O)Nc2ccc3c(c2)Cc2cccc(-c4cc(=O)cc(N5CCOCC5)o4)c2S3)C[C@H](C)O1 (2.5 µM),0,0,0,0,0,0,0,0,0,0,0,0,0,0,0,0,0,0,0,0
CN(C)CCCNc1ccn2ncc(-c3ccc4c(c3)OCO4)c2n1 (10 µM),0,0,0,0,0,0,0,0,0,0,0,0,0,0,0,0,0,0,0,0
Cc1cc(=O)[nH]c(=S)[nH]1 [Methylthiouracil] (10 µM),0,0,0,0,0,0,0,0,0,0,0,0,0,0,0,0,0,0,0,0
COC(=O)[C@]1(C)CC[C@]2(C(=O)O[C@@H]3O[C@H](CO)[C@@H](O)[C@H](O)[C@H]3O)CC[C@]3(C)C(=CC[C@@H]4[C@@]5(C)C[C@H](O)[C@H](O[C@@H]6OC[C@@H](O[C@@H]7O[C@H](CO)[C@@H](O)[C@H](O)[C@H]7O)[C@H](O)[C@H]6O)[C@@](C)(CO)C5CC[C@]43C)[C@H]2C1 (stereo not given in full) [Esculentoside H] (10 µM),0,0,0,0,0,0,0,0,0,0,0,0,0,0,0,0,0,0,0,0
